Data reported in patent US20250170218A1, “STABLE PHARMACEUTICAL COMPOSITION OF RECEPTOR AGONIST, AND PREPARATION METHOD AND APPLICATION THEREOF” (JIANGSU HANSOH PHARMACEUTICAL GROUP CO., LTD., priority 2022, published 2025).

Sequences of proteins named here, by UniProt entry; tags and fusion partners are left off. Residues count along the entry.
UniProt P48546, 22-466: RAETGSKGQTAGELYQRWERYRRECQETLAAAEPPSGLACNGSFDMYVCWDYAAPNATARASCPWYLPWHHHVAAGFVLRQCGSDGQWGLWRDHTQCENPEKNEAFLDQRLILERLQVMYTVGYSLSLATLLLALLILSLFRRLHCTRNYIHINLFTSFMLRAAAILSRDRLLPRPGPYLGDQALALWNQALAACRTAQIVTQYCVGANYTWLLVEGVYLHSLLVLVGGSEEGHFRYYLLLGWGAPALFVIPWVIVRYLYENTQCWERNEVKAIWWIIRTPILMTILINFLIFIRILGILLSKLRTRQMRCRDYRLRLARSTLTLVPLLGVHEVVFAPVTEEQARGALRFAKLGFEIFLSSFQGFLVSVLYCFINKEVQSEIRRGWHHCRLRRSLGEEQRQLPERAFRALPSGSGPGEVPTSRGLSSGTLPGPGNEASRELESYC
UniProt P43220, 24-463, species assumed: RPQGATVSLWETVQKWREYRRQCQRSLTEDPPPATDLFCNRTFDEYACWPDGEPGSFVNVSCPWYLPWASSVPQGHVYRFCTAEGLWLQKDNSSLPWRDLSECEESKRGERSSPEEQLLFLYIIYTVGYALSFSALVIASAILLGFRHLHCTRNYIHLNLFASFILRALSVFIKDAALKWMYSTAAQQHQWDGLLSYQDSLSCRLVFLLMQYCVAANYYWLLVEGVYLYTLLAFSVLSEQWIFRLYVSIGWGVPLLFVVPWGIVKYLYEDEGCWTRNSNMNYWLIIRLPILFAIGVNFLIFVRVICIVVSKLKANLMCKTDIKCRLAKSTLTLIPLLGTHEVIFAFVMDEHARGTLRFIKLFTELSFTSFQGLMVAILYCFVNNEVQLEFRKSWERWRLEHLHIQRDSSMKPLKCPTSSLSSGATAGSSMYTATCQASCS

What was measured:
GIP receptor = GIP receptor (Homo sapiens, UniProt P48546)
GLP-1 receptor = GLP-1 receptor (Homo sapiens, UniProt P43220)

Structure (SMILES): CC[C@H](C)[C@H](NC(=O)[C@H](CCCCN)NC(=O)[C@H](CCC(=O)O)NC(=O)[C@H](CC(C)C)NC(=O)[C@H](Cc1ccc(O)cc1)NC(=O)[C@@H](NC(=O)[C@H](CO)NC(=O)[C@H](Cc1ccc(O)cc1)NC(=O)[C@H](CC(=O)O)NC(=O)[C@H](CO)NC(=O)[C@@H](NC(=O)[C@H](Cc1ccccc1)NC(=O)[C@@H](NC(=O)CNC(=O)[C@H](CCC(=O)O)NC(=O)C(C)(C)NC(=O)[C@@H](N)Cc1ccc(O)cc1)[C@@H](C)O)[C@@H](C)O)[C@@H](C)CC)C(=O)N[C@@H](C)C(=O)N[C@@H](C)C(=O)N[C@@H](CCC(N)=O)C(=O)N[C@@H](CCC(=O)O)C(=O)N[C@@H](Cc1ccccc1)C(=O)N[C@H](C(=O)N[C@@H](CC(N)=O)C(=O)N[C@@H](Cc1c[nH]c2ccccc12)C(=O)N[C@@H](CC(C)C)C(=O)N[C@@H](CC(C)C)C(=O)N[C@@H](C)C(=O)NCC(=O)NCC(=O)N1CCCC1C(=O)N[C@@H](CO)C(=O)N[C@@H](CO)C(=O)NCC(=O)N[C@@H](C)C(=O)N1CCC[C@H]1C(=O)N1CCCC1C(=O)N1CCC[C@H]1C(=O)N[C@@H](CO)C(=O)N[C@@H](CCCCNC(=O)COCCOCCNC(=O)COCCOCCNC(=O)CC[C@H](NC(=O)CCCCCCCCCCCCCCCCCCC(=O)O)C(=O)O)C(N)=O)C(C)C (some centres unmarked) [Active ingredient]
- agonistic activity on the GIP receptor (GIP receptor): strong agonistic activity
- agonistic activity on the GLP-1 receptor (GLP-1 receptor): strong agonistic activity
